Source: patent publication US20230016983A1
These are yes or no findings as the source states them, for the method shown. Binding seen in cells or lysates may run through a third protein. Some entries that bind do so weakly or less than the wild type.

Sequences of proteins named here, by UniProt entry; tags and fusion partners are left off.
UniProt P04792: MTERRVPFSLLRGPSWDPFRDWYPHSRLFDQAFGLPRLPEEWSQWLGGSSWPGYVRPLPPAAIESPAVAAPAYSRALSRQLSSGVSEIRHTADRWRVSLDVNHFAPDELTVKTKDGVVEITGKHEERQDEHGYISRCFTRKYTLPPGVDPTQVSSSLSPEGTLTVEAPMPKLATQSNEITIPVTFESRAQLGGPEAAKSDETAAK
UniProt P17844: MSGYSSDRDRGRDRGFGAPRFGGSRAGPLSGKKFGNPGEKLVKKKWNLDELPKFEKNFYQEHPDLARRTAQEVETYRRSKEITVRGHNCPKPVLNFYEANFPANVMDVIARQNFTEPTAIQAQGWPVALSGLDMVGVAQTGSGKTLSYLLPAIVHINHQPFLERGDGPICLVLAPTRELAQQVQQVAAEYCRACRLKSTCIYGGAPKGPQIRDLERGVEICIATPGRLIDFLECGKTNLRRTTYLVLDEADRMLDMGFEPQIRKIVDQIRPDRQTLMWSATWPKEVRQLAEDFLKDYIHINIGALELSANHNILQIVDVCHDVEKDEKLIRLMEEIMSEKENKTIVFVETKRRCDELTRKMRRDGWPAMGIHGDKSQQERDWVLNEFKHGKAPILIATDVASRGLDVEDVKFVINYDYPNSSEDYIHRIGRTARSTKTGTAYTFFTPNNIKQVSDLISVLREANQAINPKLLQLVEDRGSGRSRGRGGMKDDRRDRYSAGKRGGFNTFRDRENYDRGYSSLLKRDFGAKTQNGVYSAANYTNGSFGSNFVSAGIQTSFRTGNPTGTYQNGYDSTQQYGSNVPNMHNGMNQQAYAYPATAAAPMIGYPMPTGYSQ

Molecular target: Heat Shock Protein Hsp27 (human) (UniProt P04792)
Assay: co-immunoprecipitation and Western blot, PC-3 cell lysate; also IP/MS of the Hsp27 interactome

binding: binds
Substance: Probable ATP-dependent RNA helicase DDX5 (from UniProt P17844 1-614) (enzyme)
